Data source: PubChem BioAssay AID1159584 (Peter MacCallum Cancer Centre, 2016)
Screen: 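Genes that CDH1-null MCF10A cells selectively depend on to survive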 (primary screen). Cells: human MCF10A breast epithelial cells, parental and CDH1-null. Knock-down reagent: siRNA against human genes. Read-out: 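ATP luminescence (CellTiter-Glo) viability per line relative to mean mock wells over all plates, and the ratio of CDH1-null to parental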. Scale: CDH1-null / parental viability ratio: higher = CDH1-null cells survive relatively better than parental; CDH1-null viability vs mock: higher = more viable CDH1-null cells; parental viability vs mock: higher = more viable parental cells.
This is a random part of about 18,000 reagents. Not given: the amount of reagent, the time to read-out.

gene symbol,CDH1-null / parental viability ratio,CDH1-null viability vs mock (fraction of mock),parental viability vs mock (fraction of mock)
SCN2A (sodium voltage-gated channel alpha subunit 2),1.03,0.72,0.7
LTN1 (listerin E3 ubiquitin protein ligase 1),0.93,0.97,1.04
CEP15 (centrosomal protein 15),0.79,0.48,0.61
KRT33B (keratin 33B),0.9,1.13,1.25
EIF5A2 (eukaryotic translation initiation factor 5A2),0.93,0.7,0.75
TMCC1 (transmembrane and coiled-coil domain family 1),1.64,0.74,0.45
S100A6 (S100 calcium binding protein A6),0.97,0.85,0.88
CAMK2B (calcium/calmodulin dependent protein kinase II beta),0.78,0.52,0.67
CCR8 (C-C motif chemokine receptor 8),0.74,0.64,0.87
SURF6 (surfeit 6),1.11,1.05,0.95
ZNF385C (zinc finger protein 385C),1.32,1.03,0.78
PRSS38 (serine protease 38),1.39,0.57,0.41
C10orf120 (chromosome 10 open reading frame 120),1.14,0.64,0.56
H2BC7 (H2B clustered histone 7),1.16,1.06,0.91
SP8 (Sp8 transcription factor),0.89,0.55,0.62
NOBOX (NOBOX oogenesis homeobox),0.8,0.7,0.88
NRG4 (neuregulin 4),0.98,0.94,0.96
OR4Q3 (olfactory receptor family 4 subfamily Q member 3),1.31,0.72,0.55
GLIPR1 (GLI pathogenesis related 1),1.07,0.89,0.83
TRERF1 (transcriptional regulating factor 1),0.93,0.53,0.57
SSX1 (SSX family member 1),0.89,0.64,0.72
OR4C12 (olfactory receptor family 4 subfamily C member 12),0.92,0.74,0.8
SLTM (SAFB like transcription modulator),1.09,0.62,0.57
ATP2A2,1.17,1.04,0.89
SKI (SKI proto-oncogene),0.88,0.84,0.96
NXPE4 (neurexophilin and PC-esterase domain family member 4),0.78,0.9,1.16
PMF1 (polyamine modulated factor 1),0.95,0.86,0.91
OR8K1 (olfactory receptor family 8 subfamily K member 1),1.06,0.87,0.82

Next part, starting with the last 4 of the part before.
gene symbol,CDH1-null / parental viability ratio,CDH1-null viability vs mock (fraction of mock),parental viability vs mock (fraction of mock)
SKI (SKI proto-oncogene),0.88,0.84,0.96
NXPE4 (neurexophilin and PC-esterase domain family member 4),0.78,0.9,1.16
PMF1 (polyamine modulated factor 1),0.95,0.86,0.91
OR8K1 (olfactory receptor family 8 subfamily K member 1),1.06,0.87,0.82
AGFG2 (ArfGAP with FG repeats 2),1.35,0.88,0.65
SF3A3 (splicing factor 3a subunit 3),1.36,0.38,0.28
TCF7L2 (transcription factor 7 like 2),0.98,0.84,0.86
MBOAT7,1.04,0.7,0.67
TRIP6 (thyroid hormone receptor interactor 6),0.85,0.84,0.99
GALNT6 (polypeptide N-acetylgalactosaminyltransferase 6),1.09,0.74,0.68
MAPK1 (mitogen-activated protein kinase 1),0.83,0.4,0.48
CFAP95 (cilia and flagella associated protein 95),0.92,0.8,0.87
SMPD3 (sphingomyelin phosphodiesterase 3),0.76,0.61,0.8
SGMS1 (sphingomyelin synthase 1),1.16,0.66,0.57
WBP2NL (WBP2 N-terminal like),0.9,0.98,1.09
TMEM41A (transmembrane protein 41A),0.67,0.56,0.83
EIF1 (eukaryotic translation initiation factor 1),1.04,0.8,0.77
DCAF4L1 (DDB1 and CUL4 associated factor 4 like 1),0.99,0.9,0.91
CLDN15 (claudin 15),1.34,0.67,0.5
LAMC2 (laminin subunit gamma 2),0.82,0.6,0.73
CASP5 (caspase 5),1.23,0.74,0.6
OR6C74 (olfactory receptor family 6 subfamily C member 74),1.16,0.88,0.76
CHST2 (carbohydrate sulfotransferase 2),1.01,0.91,0.9
SIRT5 (sirtuin 5),1.11,0.82,0.74
DCK (deoxycytidine kinase),0.55,0.36,0.66
SSR2 (signal sequence receptor subunit 2),1.04,0.99,0.95
"RAB6C (RAB6C, member RAS oncogene family)",0.99,1,1.01
MCM7 (minichromosome maintenance complex component 7),1.05,1.04,0.99
SEC61B (SEC61 translocon subunit beta),1.27,0.38,0.3
C18orf32 (chromosome 18 open reading frame 32),1.14,0.96,0.84
ZNF551 (zinc finger protein 551),1.13,0.34,0.3
DYNLRB1 (dynein light chain roadblock-type 1),0.97,0.93,0.96
GRB7 (growth factor receptor bound protein 7),1.2,1.15,0.96
SCRN1 (secernin 1),1.2,0.84,0.7
PROK1 (prokineticin 1),0.83,0.73,0.88
NELFA (negative elongation factor complex member A),1,0.94,0.94
ATOSA (atos homolog A),1.25,0.65,0.52
METAP2 (methionyl aminopeptidase 2),1.4,0.59,0.42
TM4SF18 (transmembrane 4 L six family member 18),0.96,0.43,0.45
G6PC2 (glucose-6-phosphatase catalytic subunit 2),1.26,0.88,0.7
SLC43A1,1.19,1.27,1.07
LIN9 (lin-9 DREAM MuvB core complex component),1.06,0.82,0.77
ASTN2 (astrotactin 2),1.28,0.64,0.5
SLC9B1,1.16,0.93,0.8
